Test results taken from publication PMC11892261.
No constants are given. Whether binding was seen depends on the method and setting. In cells and extracts the contact can be indirect. Some entries that bind do so weakly or less than the wild type. Sequences can lack the tags named with a protein.

Protein sequences, listed by entry. Tags and fused reporters are not part of them.
UniProt P14618: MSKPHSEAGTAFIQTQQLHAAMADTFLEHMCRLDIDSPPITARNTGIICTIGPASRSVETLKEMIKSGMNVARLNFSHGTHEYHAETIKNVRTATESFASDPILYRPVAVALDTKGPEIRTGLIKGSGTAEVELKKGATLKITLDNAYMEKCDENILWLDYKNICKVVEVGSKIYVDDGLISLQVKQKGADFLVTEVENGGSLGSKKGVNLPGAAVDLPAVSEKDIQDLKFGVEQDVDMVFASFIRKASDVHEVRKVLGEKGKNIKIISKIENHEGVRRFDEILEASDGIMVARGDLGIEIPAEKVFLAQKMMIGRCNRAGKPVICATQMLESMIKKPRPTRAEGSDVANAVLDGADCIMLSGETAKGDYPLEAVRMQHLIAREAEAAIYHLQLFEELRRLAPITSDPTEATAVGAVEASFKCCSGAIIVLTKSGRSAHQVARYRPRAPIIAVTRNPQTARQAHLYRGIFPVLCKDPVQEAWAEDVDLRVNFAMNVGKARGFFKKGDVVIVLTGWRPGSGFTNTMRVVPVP

Target: T1, Flag-tagged NONO (UniProt Q15233)
T1 sequence: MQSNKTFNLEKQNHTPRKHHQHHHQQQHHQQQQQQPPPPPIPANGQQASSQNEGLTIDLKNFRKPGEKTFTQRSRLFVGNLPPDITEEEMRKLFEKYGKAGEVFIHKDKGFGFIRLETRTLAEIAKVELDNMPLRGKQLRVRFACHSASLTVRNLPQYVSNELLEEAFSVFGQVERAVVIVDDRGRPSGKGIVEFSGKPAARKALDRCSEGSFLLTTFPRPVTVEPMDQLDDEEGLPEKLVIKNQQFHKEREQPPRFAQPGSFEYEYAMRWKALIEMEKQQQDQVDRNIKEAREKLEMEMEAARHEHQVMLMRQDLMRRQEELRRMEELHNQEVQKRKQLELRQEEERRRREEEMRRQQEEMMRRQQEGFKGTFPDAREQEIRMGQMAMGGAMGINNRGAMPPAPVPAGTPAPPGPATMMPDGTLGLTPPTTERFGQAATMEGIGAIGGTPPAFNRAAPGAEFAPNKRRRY
Assay: co-IP; anti-Flag M2 Sepharose beads on lysates of MDA-MB-231 and BT-549 cells overexpressing the Flag-tagged protein; endogenous partner found by blot; IgG as negative control

PKM2 (pyruvate kinase isozyme type M2), endogenous (from UniProt P14618 1-531)
binding: binds
